No constants are given. Whether binding was seen depends on the method and setting. In cells and extracts the contact can be indirect. Some results given as binding are weak or reduced against the parent protein; the word gives no strength.

Amino acid sequences for entries named in this document (tags omitted). A change or cut given only in a name is not applied to a line headed by its entry. Residues count along the entry.
UniProt Q9BWN1, 1-212: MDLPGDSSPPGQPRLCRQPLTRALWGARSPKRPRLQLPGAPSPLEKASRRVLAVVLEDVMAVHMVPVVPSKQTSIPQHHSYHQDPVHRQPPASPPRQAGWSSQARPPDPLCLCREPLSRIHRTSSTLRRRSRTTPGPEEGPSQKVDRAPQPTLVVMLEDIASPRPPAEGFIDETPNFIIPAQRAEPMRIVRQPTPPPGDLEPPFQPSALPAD
UniProt P45973, whole entry: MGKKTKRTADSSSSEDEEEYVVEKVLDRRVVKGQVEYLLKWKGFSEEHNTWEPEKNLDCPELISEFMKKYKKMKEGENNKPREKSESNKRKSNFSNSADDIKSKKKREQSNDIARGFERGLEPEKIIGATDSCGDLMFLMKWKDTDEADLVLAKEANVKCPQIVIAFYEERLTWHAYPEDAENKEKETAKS
UniProt P83916, whole entry: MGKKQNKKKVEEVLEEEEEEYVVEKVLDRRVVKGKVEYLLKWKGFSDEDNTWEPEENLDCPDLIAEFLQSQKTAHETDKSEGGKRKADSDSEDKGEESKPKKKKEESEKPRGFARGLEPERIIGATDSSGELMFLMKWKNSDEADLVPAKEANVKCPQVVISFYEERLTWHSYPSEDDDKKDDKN
UniProt Q13185, whole entry: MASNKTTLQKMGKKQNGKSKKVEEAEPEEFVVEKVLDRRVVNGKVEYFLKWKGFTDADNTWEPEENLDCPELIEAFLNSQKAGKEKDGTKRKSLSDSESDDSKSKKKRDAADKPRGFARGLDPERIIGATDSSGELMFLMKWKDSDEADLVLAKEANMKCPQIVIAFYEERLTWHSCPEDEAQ

Test in all cases: co-IP
Assay [1] has as its target GFP-tagged PRR14 1-212 fragment, double mutant (DM; 54-55EE and 154-155EE) (human) (UniProt Q9BWN1).
The target of assay [2] is GFP-tagged PRR14 1-212 fragment, HP1-binding site 2 mutant (154-155EE) (human) (UniProt Q9BWN1).
The target in assay [3] is GFP-tagged PRR14 1-212 fragment, wild-type (human) (UniProt Q9BWN1).
The target of assay [4] is GFP-tagged PRR14 1-212 fragment, HP1-binding site 1 mutant (54-55EE) (human) (UniProt Q9BWN1).

Consider “heterochromatin protein 1 alpha (HP1α) (from UniProt P45973 1-191)”, for which the results for the binding entry in assay [1], in assay [2] and in assay [3] were “no binding”, “binds” and “binds”, respectively.
Consider “heterochromatin protein 1 beta (HP1β) (from UniProt P83916 1-185)”, for which the binding entry in assay [1] is “no binding”; in assay [2] it was “binds”; in assay [3], “binds”.
“heterochromatin protein 1 gamma (HP1γ) (from UniProt Q13185 1-183)”: the binding entry in assay [1] is recorded as “no binding”; in assay [2], “binds”; in assay [4] it was “binds weakly”; in assay [3], “binds”.

These data come from article doi:10.1101/2022.05.17.492278.
